Assay [1] addresses T1, Rac GTPase-activating protein 1 (RACGAP1), endogenous in prostate cancer cells (human (endogenous in 22RV1, C4-2B-ENZR, C4-2B)) (UniProt Q9H0H5).
T1 sequence: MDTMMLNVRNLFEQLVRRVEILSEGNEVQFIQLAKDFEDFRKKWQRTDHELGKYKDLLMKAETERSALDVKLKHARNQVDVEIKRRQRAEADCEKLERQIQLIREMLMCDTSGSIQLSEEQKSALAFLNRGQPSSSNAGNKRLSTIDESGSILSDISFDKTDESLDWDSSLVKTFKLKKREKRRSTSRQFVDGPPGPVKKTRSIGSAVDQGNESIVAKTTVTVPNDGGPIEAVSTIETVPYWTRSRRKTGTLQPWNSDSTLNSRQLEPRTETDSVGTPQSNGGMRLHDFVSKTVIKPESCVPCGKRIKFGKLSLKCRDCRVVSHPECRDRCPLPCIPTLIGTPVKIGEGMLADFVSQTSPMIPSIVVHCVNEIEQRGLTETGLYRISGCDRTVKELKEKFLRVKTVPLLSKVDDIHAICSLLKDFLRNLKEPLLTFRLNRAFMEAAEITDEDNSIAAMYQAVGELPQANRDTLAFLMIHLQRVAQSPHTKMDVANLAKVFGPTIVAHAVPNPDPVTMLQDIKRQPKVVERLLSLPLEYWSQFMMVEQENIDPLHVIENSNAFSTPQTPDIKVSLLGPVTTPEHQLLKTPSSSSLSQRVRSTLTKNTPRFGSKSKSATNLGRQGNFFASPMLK
Nature of the assay: co-IP; endogenous proteins; lysates of 22RV1 and C4-2B-ENZR cells (Fig. 2D) and of C4-2B-Parental and C4-2B-ENZR cells (Fig. 2J) immunoprecipitated with anti-AR, anti-AR-V7 or anti-RACGAP1 antibodies, IgG as negative control, then western blotting. In general terms: In western blotting, separated proteins are transferred to a membrane and probed.

Assay [2] concerns the target androgen receptor splice variant 7 (AR-V7), endogenous in prostate cancer cells (human (endogenous in 22RV1, C4-2B-ENZR)) (UniProt P10275). Described as above.

No constants are given. Whether binding was seen depends on the method and setting. Binding seen in cells or lysates may run through a third protein. Some results given as binding are weak or reduced against the parent protein; the word gives no strength.

Take “androgen receptor splice variant 7 (AR-V7), endogenous in prostate cancer cells (from UniProt P10275-3 1-644)”: the binding result in assay [1] is recorded as “binds”.

B1: Rac GTPase-activating protein 1 (RACGAP1), endogenous in prostate cancer cells (protein, UniProt Q9H0H5 1-632)
chain: T1 sequence
For the molecule B1, the binding entry in assay [2] is “binds”.

Values taken from publication PMC11186203.
